Library screen at single concentrations

Measurements from “University of Dundee, Small-Polar-MMV Screening Library” (2021), ChEMBL document CHEMBL3988442.

Values are the deposited “Percent Effect”, in %. The record does not define 0% and 100%; most values in the screen are far below 50% and negative numbers occur (in some assays of this library far below -100). Compounds were drawn at random from those tested, without regard to their results. Two or more numbers in one place are separate tests of the same structure; such repeats can differ widely.

Mtb glucose medium: 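Growth of Mycobacterium tuberculosis over 3 days (7H9 medium with glucose and tyloxapol); the read-out is not stated. Compounds at 50 µM. Direction is inferred from retests: higher values go with more growth inhibition. Of about 69,000 compounds tested this way, about 760 (1.1%) reached 50% or more in at least one test.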
Mtb cholesterol medium: 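Growth of Mycobacterium tuberculosis over 4 days (cholesterol / DPPC medium with tyloxapol); the read-out is not stated. Tested at 50 µM. The record gives no direction; compounds that gave an IC50 in retests scored well above the rest, so higher reads as more growth inhibition. Of about 69,000 compounds tested this way, about 370 (0.54%) reached 50% or more in at least one test.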

O=C(O)C(F)(F)F.O=C(O)C(F)(F)F.[H][C@@]12C[C@@H](OCc3ccccc3)CN1CCN(c1ncccn1)C2 gave Mtb glucose medium: -2.408% and -4.488%; Mtb cholesterol medium: 9.109%. For COc1cc(C)sc1C(=O)NCCC(=O)N(C)c1ccccc1 the result was Mtb glucose medium: -0.2156% and -2.982%; Mtb cholesterol medium: 12.23%. With COCCN1CCC(CNc2cnc3ccccc3n2)CC1 the screen gave Mtb cholesterol medium: -38.71%. For CCc1noc(CN2CCC(c3ccnn3CCO)CC2)n1 the result was Mtb glucose medium: 20.63%; Mtb cholesterol medium: 8.451%.

Result for Cc1csc(C2(NC(=O)NCCN3CCOCC3)CCC2)n1 was Mtb glucose medium: -5.744% and 9.83%; Mtb cholesterol medium: -11.18%. With COc1ccc(CN2CCc3nnc(COCCN(C)C)n3CC2)cc1.O=C(O)C(F)(F)F.O=C(O)C(F)(F)F the screen gave Mtb glucose medium: 12.08%; Mtb cholesterol medium: 0.4931%. Result for O=C(O)c1nnn(-c2cccc(C(F)(F)F)c2)c1C1CC1 was Mtb glucose medium: -13.35%; Mtb cholesterol medium: -2.431%. Result for COC(=O)N1CC2=CC(C)(C)COc3ccc(OC)c(c32)C1 was Mtb glucose medium: 25.47%; Mtb cholesterol medium: 5.149%.

Cc1cccc(C)c1NC(=O)c1n[nH]c(-n2cnnc2)n1 read Mtb glucose medium: 10.95%; Mtb cholesterol medium: -4.629%. N#CC1(C(=O)N2C[C@H](Nc3ccnc(N)n3)[C@@H](C3CC3)C2)CCOCC1 read Mtb glucose medium: 13.61% and 0.6336%; Mtb cholesterol medium: -8.566%. Cn1cc(CN2CC[C@@H](O)[C@@H]2Cc2ccccc2)cn1 gave Mtb glucose medium: 0.8505%; Mtb cholesterol medium: 18.72% and -9.911%. Cc1nnc(CN2CCN(CC(O)c3ccccc3)CC2)o1 (centres unmarked) read Mtb glucose medium: 26.65%; Mtb cholesterol medium: 1.74%.

Result for Cc1ccc(N2CCCC(NCc3cscn3)C2)nn1 (centres unmarked) was Mtb glucose medium: -17.49%; Mtb cholesterol medium: -28.1%. Result for CSCC(=O)N1CCC(Oc2cccc(C)c2)CC1 was Mtb glucose medium: -3.634%; Mtb cholesterol medium: 0.2198%. With Cc1nc(N2CCCC2)nc(C)c1NC(=O)c1ccco1 the screen gave Mtb glucose medium: 18.59% and 5.522%; Mtb cholesterol medium: 8.24%. For O=C(NCCn1ccnc1)c1ccn(-c2cccc(F)c2)n1 the result was Mtb glucose medium: -22.18%; Mtb cholesterol medium: -21.36%.

With [H][C@]12CC[C@@]3(N=C(C)N(CC)C3=O)[C@@]1([H])CN(C(=O)Nc1ccc(F)cc1)C2 the screen gave Mtb glucose medium: -11.8%; Mtb cholesterol medium: 1.108%. COC(=O)c1ccc(N2CCN(C(=O)c3cc(C)no3)C(C)C2)cc1 (centres unmarked) gave Mtb glucose medium: 7.775% and -0.1163%; Mtb cholesterol medium: 2.466%. Result for CNC(=O)NC(=O)C(C)N1CCN(C2CCCC2)CC1 (centres unmarked) was Mtb glucose medium: 8.613% and -2.216%; Mtb cholesterol medium: 2.092%. For CCNC(=O)NC(=O)C(C)N1CCCc2cc(OC)ccc2C1 (centres unmarked) the result was Mtb glucose medium: 16.63%; Mtb cholesterol medium: 7.785%.

CN1CCOC(C)(C(=O)N2CCN(C3CCCC3)CC2)C1 (centres unmarked) read Mtb glucose medium: 3.929%; Mtb cholesterol medium: 4.38%. With O=C(NCCOc1ccccc1)C1NCCc2[nH]cnc21 (centres unmarked) the screen gave Mtb glucose medium: -2.128%; Mtb cholesterol medium: -11.76%. Result for CCOc1ccc(SCCNS(=O)(=O)CC)cc1 was Mtb glucose medium: 19.28%; Mtb cholesterol medium: -0.4258% and 0.9242%. With CN(C)c1nc(N)nc(CSCCC(=O)Nc2cccc(Cl)c2)n1 the screen gave Mtb glucose medium: -51.48%; Mtb cholesterol medium: -26.34%.

Cc1ccccc1-c1noc(CN2CC(n3cccn3)C2)n1 read Mtb glucose medium: -7.635%; Mtb cholesterol medium: -0.5236%. CCN(CC)C(=O)CCc1nc(-c2cnn3c(C)cc(C)nc23)no1 read Mtb glucose medium: 43.87%; Mtb cholesterol medium: -2.486%. For CCC(C)NC(=O)c1nnn(-c2ccc(Br)cc2)n1 (centres unmarked) the result was Mtb glucose medium: 35.4%; Mtb cholesterol medium: 37.66%. O=C(Nc1cccc2c1CCCC2)c1cccc(CN2CC[C@H](O)C2)c1 read Mtb glucose medium: 0.7539% and -18.82%; Mtb cholesterol medium: -2.641%.

With CCC(O)(CNCc1cc[nH]n1)c1ccc(Br)cc1 (centres unmarked) the screen gave Mtb glucose medium: -7.764%; Mtb cholesterol medium: -17.01%. Cc1cccnc1CC(C)NC1Cc2ccccc2C1 (centres unmarked) gave Mtb glucose medium: 1.689%; Mtb cholesterol medium: 1.872%. With Cc1ccc(NC2CCN(C(=O)CCn3nc(C)cc3C)CC2)nn1 the screen gave Mtb glucose medium: 9.581%; Mtb cholesterol medium: 4.084%. Result for CCN(C(=O)CN1CCCC1c1ccc(OC)cc1)c1ccccc1C (centres unmarked) was Mtb glucose medium: 48.62%; Mtb cholesterol medium: -8.744%.

For [H][C@@]12CN(Cc3ccccn3)C[C@]1([H])CN(C(=O)Cc1ccccn1)C2 the result was Mtb glucose medium: 5.196%; Mtb cholesterol medium: -5.844%. Result for O=C(O)C(F)(F)F.[H][C@@]12CCN(Cc3cccc(C)n3)[C@@]1([H])CCN2C(=O)c1cc(C)oc1C was Mtb glucose medium: -11.79%; Mtb cholesterol medium: -31.26%. Result for Cc1nnc(NC(=O)CSCc2cc(=O)n3ccccc3n2)s1 was Mtb glucose medium: 14.83%; Mtb cholesterol medium: -12.35%. CC(=O)NC1CCCN(Cc2csc(-c3ncccn3)n2)C1 (centres unmarked) read Mtb glucose medium: -23.21%; Mtb cholesterol medium: 3.314%.

CNC(=O)C1(c2cnccn2)CCCN1C(=O)c1ccccc1 (centres unmarked) gave Mtb glucose medium: -18.8%; Mtb cholesterol medium: -14.51%. Result for O=S(=O)(c1ccccc1)N1CCC2(CCCN2Cc2ccccc2Cl)C1 (centres unmarked) was Mtb glucose medium: -41.89%; Mtb cholesterol medium: -1.233% and -4.814%.

Repeated from the top, 5 entries:

{"compound": "O=C(O)C(F)(F)F.O=C(O)C(F)(F)F.[H][C@@]12C[C@@H](OCc3ccccc3)CN1CCN(c1ncccn1)C2", "Mtb glucose medium": "-2.408 and -4.488", "Mtb cholesterol medium": 9.109}
{"compound": "COc1cc(C)sc1C(=O)NCCC(=O)N(C)c1ccccc1", "Mtb glucose medium": "-0.2156 and -2.982", "Mtb cholesterol medium": 12.23}
{"compound": "COCCN1CCC(CNc2cnc3ccccc3n2)CC1", "Mtb cholesterol medium": -38.71}
{"compound": "CCc1noc(CN2CCC(c3ccnn3CCO)CC2)n1", "Mtb glucose medium": 20.63, "Mtb cholesterol medium": 8.451}
{"compound": "Cc1csc(C2(NC(=O)NCCN3CCOCC3)CCC2)n1", "Mtb glucose medium": "-5.744 and 9.83", "Mtb cholesterol medium": -11.18}